Earlier results in patent publication US12473332B2, “Modified peptides and associated methods of use” (Advanced Technologies For Novel Therapeutics, LLC, priority 2019, dated 2025).

What was measured:
glioblastoma cells = settings: literature; read-out: IC-50 on glioblastoma cells; cited from earlier work
Neuroblastoma cells = settings: literature; read-out: IC-50 on neuroblastoma cells; cited from earlier work

Q: With Cc1ccc(NC(=O)c2ccc(CN3CCN(C)CC3)cc2)cc1Nc1nccc(-c2cccnc2)n1 [Gleevec, Imatinib] as the compound, how does the IC50 (glioblastoma cells) read?
A: 15.7 to 18.7 µM

Q: What about the IC50 (Neuroblastoma cells) of the same compound?
A: 9 to 13 µM
